## Library screen at single concentrations

The values are deposited in ChEMBL (CHEMBL3988442, “University of Dundee, Small-Polar-MMV Screening Library” (2021)).

Mtb cholesterol medium: 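Phenotypic screen: M. tuberculosis growth, cholesterol and DPPC medium, 4 days; the read-out is not stated. Concentration: 50 µM. Higher reads as more growth inhibition (inferred: compounds with an IC50 in retests scored well above the rest). Of about 69,000 compounds tested this way, about 370 (0.54%) reached 50% or more in at least one test.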
Mtb glucose medium: 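Whole-cell growth test on Mycobacterium tuberculosis, read after 3 days in glucose-containing 7H9 medium; the read-out is not stated. Tested at 50 µM. The record gives no direction; compounds that gave an IC50 in retests scored well above the rest, so higher reads as more growth inhibition. Of about 69,000 compounds tested this way, about 760 (1.1%) reached 50% or more in at least one test.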

Values are the deposited “Percent Effect”, in %.
The record does not define 0% and 100%; most values in the screen are far below 50% and negative numbers occur (in some assays of this library far below -100).
Compounds were drawn at random from those tested, without regard to their results.
Two or more numbers in one place are separate tests of the same structure; such repeats can differ widely.

COCC(=O)N1CCC(c2cc3n(n2)[C@@H](C(F)(F)F)C[C@@H](C)N3)CC1 read Mtb cholesterol medium: -12.17%; Mtb glucose medium: 0.654%. For CN(CCc1ccncc1)C1CCCN(Cc2noc(C3CC3)n2)C1 (centres unmarked) the result was Mtb cholesterol medium: -21.77%; Mtb glucose medium: -17.43%. For CC(C)c1noc(CCCC(=O)N2CCN(C)CC2c2ccccc2)n1 (centres unmarked) the result was Mtb cholesterol medium: -24.45%; Mtb glucose medium: -18.92% & -6.335%. CC(C)C(O)C1(CNC(=O)Nc2ccc(CN3CCOC3=O)cc2)CC1 (centres unmarked) read Mtb cholesterol medium: -1.463%; Mtb glucose medium: 21.26%.

CCn1cc(S(=O)(=O)NC(CO)Cc2ccccc2)cn1 (centres unmarked) gave Mtb cholesterol medium: 3.227%; Mtb glucose medium: 29.15%. Cc1cccc(C(=O)NCc2ccc(CS(N)(=O)=O)cc2)n1 read Mtb cholesterol medium: 5.185%; Mtb glucose medium: 22.9%. Result for Cc1noc(C)c1CC(=O)NCC1(O)CCCN(c2ccccn2)C1 (centres unmarked) was Mtb cholesterol medium: -17.97%; Mtb glucose medium: 18.35%. With [H][C@@]12CCN(C(=O)c3cscn3)C[C@@]1([H])O[C@@H](c1nnc(C3CC3)o1)C2 the screen gave Mtb cholesterol medium: -5.061%; Mtb glucose medium: 1.076%.

CCOCCn1nc(C)cc1C(=O)N1CC[C@@](O)(COC)C(C)(C)C1 gave Mtb cholesterol medium: -7.385% & -5.568%; Mtb glucose medium: -5.687%. Result for [H][C@@]12OCCN(C(=O)c3ccnnc3)[C@@]1([H])CC[C@H]2Oc1cccnc1 was Mtb cholesterol medium: -2.588% & -3.732%; Mtb glucose medium: 17.67%. Cn1nnc2c1C(COCC1CC1)CN(C(=O)Cc1ccsc1)C2 (centres unmarked) read Mtb cholesterol medium: -2.055%; Mtb glucose medium: 12.45%. With [H][C@@]12CN(Cc3cccnc3)C[C@]1([H])C(=O)NC21CCN(C(C)=O)CC1 the screen gave Mtb cholesterol medium: -10.17%; Mtb glucose medium: 19.91%.

Result for CN1CCN(C2COC3(CCN(Cc4cccs4)CC3)C2)CC1.O=C(O)C(F)(F)F.O=C(O)C(F)(F)F (centres unmarked) was Mtb cholesterol medium: -14.7% & -5.023%; Mtb glucose medium: -36.54%. Result for CNc1nc(CNC(=O)Nc2ccccc2OC(C)C)cs1 was Mtb cholesterol medium: -103.8% & -2.074%; Mtb glucose medium: 23.35%. With CC(C)c1nnc2n1CCN(c1nn3cc(C(C)(C)C)nc3s1)C2 the screen gave Mtb cholesterol medium: 9.221%; Mtb glucose medium: 8.84%. Cn1ncc(NC(=O)c2noc3c2CCCC3)c1C(=O)N1CCCCC1 gave Mtb cholesterol medium: -4.953%; Mtb glucose medium: 17.59%.

Result for CCOCCOc1ccc(S(=O)(=O)N2CCc3c(nc[nH]c3=O)C2)cc1 was Mtb cholesterol medium: -6.289%; Mtb glucose medium: 14.35%. Result for [H][C@]12CCN(Cc3cccc(C)n3)[C@@]1([H])C[C@H](C(=O)N1CCN(C)CC1)O2 was Mtb cholesterol medium: -10.73%; Mtb glucose medium: 2.618%. CC(NC(=O)c1cnccn1)c1nnc2ccccn12 (centres unmarked) gave Mtb cholesterol medium: 3.186%; Mtb glucose medium: 11.65%. For CC1CCCCN1CCNC(=O)c1ccn(-c2cccc(F)c2)n1 (centres unmarked) the result was Mtb cholesterol medium: -13.98%; Mtb glucose medium: 25.29%.

COC(=O)C(C)NC(=O)CSCc1nc(O)c2cc(C(C)C)sc2n1 (centres unmarked) read Mtb cholesterol medium: -13.54% & -1.796%; Mtb glucose medium: -33.08%. For CCCNc1ncc(CN2CCN(C)C(=O)C2C)cn1 (centres unmarked) the result was Mtb cholesterol medium: -31.92%; Mtb glucose medium: -26.66%. For O=C(COCCOc1ccccc1)Nc1ccnn1CC1CCOC1 (centres unmarked) the result was Mtb cholesterol medium: 10.23%; Mtb glucose medium: 0.9026%. O=C(O)C(F)(F)F.[H][C@@]12COC[C@]1(CNS(C)(=O)=O)CN(CC1CCCC1)C2 read Mtb cholesterol medium: 2.84%; Mtb glucose medium: -24.16%.

With Cc1cc(C(=O)N2CCCC(c3nccn3Cc3ccncc3)C2)no1 (centres unmarked) the screen gave Mtb cholesterol medium: -3.348% & -7.416%; Mtb glucose medium: -8.669%. With CCCN(CC(F)(F)F)S(=O)(=O)c1cc(C(N)=O)n(C)c1 the screen gave Mtb cholesterol medium: -0.513%; Mtb glucose medium: 18.24%. Result for Cc1cc(C)n(CCN2CCC(N(C)Cc3nnc(C)n3C)C2)n1 (centres unmarked) was Mtb cholesterol medium: 0.3264%; Mtb glucose medium: 18.62%. CCN1CCC(NC(=O)CN2CCCCC2Cn2cncn2)CC1 (centres unmarked) read Mtb cholesterol medium: -36.45%; Mtb glucose medium: -33.4%.

Result for [H][C@@]12CCCN1CCCN(c1cc(C)nc3c(C)c(C)nn13)C2 was Mtb cholesterol medium: 13.12% & 8.574%; Mtb glucose medium: 5.947%. For [H][C@@]12C[C@H](C(=O)NC(C)C)C[C@@]1([H])OCCN2 the result was Mtb cholesterol medium: -16.99%; Mtb glucose medium: -10.94% & 7.692%. With COc1ccc(NC(=O)c2ccc[nH]2)c(N2CCN(C(C)=O)CC2)n1 the screen gave Mtb cholesterol medium: 1.979% & 5.666%; Mtb glucose medium: 14.65%. With O=C(O)C(F)(F)F.[H][C@]12CCN(c3ncccn3)[C@@]1([H])CC[C@H](COCc1csc(C)n1)O2 the screen gave Mtb cholesterol medium: -9.587% & -1.15%; Mtb glucose medium: -24.05%.

With O=C(NCc1cccnc1N1CCCCC1)c1ccc2[nH]nnc2c1 the screen gave Mtb cholesterol medium: -13.62%; Mtb glucose medium: -0.8434%. Result for COC(=O)c1ccoc1CN(C)CC(=O)N(C)C was Mtb cholesterol medium: -28.03%; Mtb glucose medium: -19.42%. Result for CC(=O)c1cc2ncc(C(=O)NC3CCCC3)cc2[nH]1 was Mtb cholesterol medium: -11.13%; Mtb glucose medium: 10.59%. CN(CC(F)F)C(=O)c1cn(-c2ccc(Br)cc2)cn1 gave Mtb cholesterol medium: -19.03%; Mtb glucose medium: 4.349%.

CN(C)C(=O)CCNC(=O)NCc1ccc(Br)cc1Cl gave Mtb cholesterol medium: -45.77%; Mtb glucose medium: -18.45%. CCN(Cc1ccc2c(c1)OCCO2)C(=O)Cn1cccnc1=O gave Mtb cholesterol medium: 21.6%; Mtb glucose medium: 16.02%. Cc1ccc(C(=O)N2CCN(CCc3cccs3)CC2)c(=O)[nH]1 gave Mtb cholesterol medium: 0.4433%; Mtb glucose medium: -23.48%. CC(C)(O)CN1CCN(C(=O)c2cccn2Cc2ccncc2)CC1 read Mtb cholesterol medium: -5.814%; Mtb glucose medium: -4.333%.

With O=C(NCCCc1ccco1)c1ccc(N2CCOCC2)cc1 the screen gave Mtb cholesterol medium: 8.478%; Mtb glucose medium: 12.8%. NC(=O)C1CCN(CCc2ccc(NC(=O)C3CCC3)cc2)CC1 gave Mtb cholesterol medium: -0.6402%; Mtb glucose medium: -10.08%. CCCc1n[nH]c(C2CN(C(=O)c3cccc4cn[nH]c34)CCO2)n1 (centres unmarked) gave Mtb cholesterol medium: 6.792%; Mtb glucose medium: -2.949%. Result for NC(=O)Cn1cnc2nc3n(c2c1=O)CCC3 was Mtb cholesterol medium: -19.67%; Mtb glucose medium: -3.816% & -11.86%.

With O=C(O)C(F)(F)F.O=C(O)C(F)(F)F.[H][C@@]12CCN(c3ccccc3)C[C@]1([H])[C@H](C(=O)Nc1cccnc1C)CCO2 the screen gave Mtb cholesterol medium: 22.46%; Mtb glucose medium: 30.68%.

5 of the entries, repeated:

| compound | Mtb cholesterol medium | Mtb glucose medium |
|---|---|---|
| `CC(=O)c1cc2ncc(C(=O)NC3CCCC3)cc2[nH]1` | -11.13 | 10.59 |
| `CCN1CCC(NC(=O)CN2CCCCC2Cn2cncn2)CC1` (centres unmarked) | -36.45 | -33.4 |
| `CN(C)C(=O)CCNC(=O)NCc1ccc(Br)cc1Cl` | -45.77 | -18.45 |
| `CC(C)c1noc(CCCC(=O)N2CCN(C)CC2c2ccccc2)n1` (centres unmarked) | -24.45 | -18.92 & -6.335 |
| `CC1CCCCN1CCNC(=O)c1ccn(-c2cccc(F)c2)n1` (centres unmarked) | -13.98 | 25.29 |